The results in this text go back to patent US6562632B1, “Reactive derivatives of sulforhodamine 101 with enhanced hydrolytic stability” (Molecular Probes, Inc., priority 1995, dated 2003).

One data set has as its system goat IgG protein. Briefly: Effect of hydrolytic stability on protein labeling efficiency. Conditions: dye/protein ratio 10.
The test system of data set [1] is goat anti-mouse IgG (GAM). Briefly: Protein labeling with reactive dye, degree of substitution on goat anti-mouse IgG.
The mark [2] stands for this setting: dye in 25% DMF/75% aqueous sodium bicarbonate for 1 minute before labeling.
[3] abbreviates: dye in 25% DMF/75% aqueous sodium bicarbonate for 5 minutes before labeling.

Turning to `O=C(CCCCCNS(=O)(=O)c1ccc(C2=c3cc4c5c(c3Oc3c2cc2c6c3CCCN6CCC2)CCC[N+]=5CCC4)c(S(=O)(=O)[O-])c1)ON1C(=O)CCC1=O` [Compound 2], the “Degree of Substitution” value was found to be 4.09 with goat IgG protein (setting [2]); 3.64 in the data set with goat IgG protein (setting [3]); 3.38 in the data set on goat IgG protein (dye in 25% DMF/75% aqueous sodium bicarbonate for 10 minutes before labeling); 2.96 with goat IgG protein (dye in 25% DMF/75% aqueous sodium bicarbonate for 20 minutes before labeling); 3.00 in the data set with goat IgG protein (dye in 25% DMF/75% aqueous sodium bicarbonate for 30 minutes before labeling); 1.29 in data set [1] (Dye:Protein Ratio 2.5). In addition, the entries for the “Degree of Substitution” value in data set [1] (Dye:Protein Ratio 5.5) and in data set [1] (Dye:Protein Ratio 8.0) were 2.54 and 3.27, respectively.

Regarding “sulfonyl chloride of sulforhodamine 101 [SSC, reference compound]”, the “Degree of Substitution” value in the data set on goat IgG protein (setting [2]) was 0.30; in the data set with goat IgG protein (setting [3]), “no protein conjugate is formed”.
